According to paper doi:10.1101/2020.08.29.273516:
Like-named read-outs stand apart in the source and are kept apart here. These are yes or no findings as the source states them, for the method shown. For some assays here: A result given as binding can be weak or reduced; the word gives no strength. For some assays here: Tags and fused reporters may be left off the sequences shown.

Protein sequences, listed by entry. Tags and fused reporters are not part of them. Residues count along the entry.
UniProt O00206, residues 676-835: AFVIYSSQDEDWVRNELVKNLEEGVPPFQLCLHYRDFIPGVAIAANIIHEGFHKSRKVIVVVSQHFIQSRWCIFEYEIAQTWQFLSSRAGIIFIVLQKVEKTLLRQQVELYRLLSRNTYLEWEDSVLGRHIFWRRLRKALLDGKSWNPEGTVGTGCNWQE
UniProt O60603, residues 639-782: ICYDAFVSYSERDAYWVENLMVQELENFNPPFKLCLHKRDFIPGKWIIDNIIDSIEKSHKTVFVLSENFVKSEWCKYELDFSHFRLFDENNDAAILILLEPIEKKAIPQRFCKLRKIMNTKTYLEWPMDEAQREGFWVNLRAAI
UniProt P58753, residues 84-213: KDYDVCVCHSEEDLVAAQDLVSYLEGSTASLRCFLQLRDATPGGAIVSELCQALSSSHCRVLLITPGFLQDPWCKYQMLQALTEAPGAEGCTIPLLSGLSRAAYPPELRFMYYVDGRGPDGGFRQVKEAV
UniProt Q99836, residues 159-293: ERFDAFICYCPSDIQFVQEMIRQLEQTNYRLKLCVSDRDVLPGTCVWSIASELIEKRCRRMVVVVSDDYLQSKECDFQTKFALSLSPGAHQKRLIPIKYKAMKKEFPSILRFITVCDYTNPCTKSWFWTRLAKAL
UniProt Q86XR7, residues 73-229: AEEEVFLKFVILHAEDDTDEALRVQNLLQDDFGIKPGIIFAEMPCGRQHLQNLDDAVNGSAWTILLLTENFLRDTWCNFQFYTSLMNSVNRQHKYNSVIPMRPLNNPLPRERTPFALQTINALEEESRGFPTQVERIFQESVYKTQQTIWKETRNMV

Experiments:
Experiment in all cases: pull-down
[1] = target: GST-TLR4-TIR (GST-tagged cytoplasmic Toll/interleukin-1 receptor module of TLR4, aa 676-835) (UniProt O00206)
[2] = target: GST-TLR4-TIR (GST-tagged cytoplasmic Toll/interleukin-1 receptor module of TLR4, aa 676-835) (UniProt O00206); remark: listed apart in the source
[3] = target: T1, GST-tagged TIR module of TLR1 (UniProt Q15399)
T1 sequence: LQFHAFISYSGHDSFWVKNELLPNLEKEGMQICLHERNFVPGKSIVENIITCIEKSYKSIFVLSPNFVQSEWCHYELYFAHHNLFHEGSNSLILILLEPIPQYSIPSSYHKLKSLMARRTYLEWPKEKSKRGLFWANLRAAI

[4] = target: GST-tagged TIR module of TLR2 (UniProt O60603)
[5] = target: T2, GST-tagged TIR module of TLR6 (UniProt Q9Y2C9)
T2 sequence: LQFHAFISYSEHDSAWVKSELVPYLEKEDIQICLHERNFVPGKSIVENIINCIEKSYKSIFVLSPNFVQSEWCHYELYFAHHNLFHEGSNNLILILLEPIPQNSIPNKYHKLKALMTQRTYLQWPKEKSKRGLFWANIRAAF

[6] = target: GST-tagged TIR module of the adaptor Mal (UniProt P58753)
[7] = target: GST-tagged TIR module of the adaptor MyD88 (UniProt Q99836)
[8] = target: GST-tagged TIR module of the adaptor TRAM (UniProt Q86XR7)

binding [1]: binds
binding [2]: binds
binding [3]: no binding
binding [4]: no binding
binding [5]: no binding
binding [6]: binds
binding [7]: no binding
binding [8]: binds
Substance: His-GIV-CT (recombinant C-terminus of GIV) (from UniProt Q3V6T2-3) (domain or fragment)
